Several values for one entry are separate records, joined by “and”; a condition that tells them apart may be missing. Equal values may be shown once. The inconclusive results got no clear call from the source; some entries with a clear call stand among them for comparison. For some of these results: Potencies of inconclusive entries are doubtful fits and often do not repeat. More than one record can exist for a structure, and the calls need not agree. Activity calls are given as the source filed them. Unless noted, calls follow the shape of the full dose curve.
Columns and labels:
[1] = biological target: Beta-2 adrenergic receptor (Homo sapiens) (UniProt P07550); experiment: Adrenergic beta2 receptor (ADRB2) small molecule agonists, cell-based qHTS assay (AID 1963593); settings: CHO-ADRB2 cells, cAMP HTRF, 30 min; also: potency is read from the fitted curve at half-maximal effect;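 as to activation: CHO cells stably overexpressing human ADRB2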
In short: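 CHO cells stably over-expressing ADRB2 were plated overnight at 37C, then dosed with compounds plus a stimulation mix containing 100uM IBMX and 25uM Ro-20-1724 for 0.5hr at room temperature. cAMP was measured by HTRF competition, 1hr.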

Chains of the proteins cited; added tags and fusions are not shown.
UniProt P14416, whole entry, looked up: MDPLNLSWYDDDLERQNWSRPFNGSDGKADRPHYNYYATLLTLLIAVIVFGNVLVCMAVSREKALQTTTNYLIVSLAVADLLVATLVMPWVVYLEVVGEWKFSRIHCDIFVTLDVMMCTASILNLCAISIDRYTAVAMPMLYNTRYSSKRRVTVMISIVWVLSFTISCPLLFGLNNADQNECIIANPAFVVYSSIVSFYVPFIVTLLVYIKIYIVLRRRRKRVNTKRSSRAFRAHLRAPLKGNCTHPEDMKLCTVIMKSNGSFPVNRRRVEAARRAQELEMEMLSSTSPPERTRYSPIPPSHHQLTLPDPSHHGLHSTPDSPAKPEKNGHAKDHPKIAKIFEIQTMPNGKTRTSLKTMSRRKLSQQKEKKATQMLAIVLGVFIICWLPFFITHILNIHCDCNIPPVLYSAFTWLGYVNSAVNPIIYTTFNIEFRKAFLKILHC

[2] = biological target: D(2) dopamine receptor (Homo sapiens) (UniProt P14416); experiment: Dopamine D2 receptor (DRD2) small molecule agonists, cell-based qHTS assay (AID 1963594); settings: HEK293-DRD2 cAMP HTRF, agonist mode, 30 min; activation: at 92.4 µM (top of the series) unless noted; also: nearly all actives have a fitted effect of over 35% in size; also: potency is read from the fitted curve at half-maximal effect
In short: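 HEK293 cells stably expressing human DRD2, pre-treated with PDE inhibitor Ro20-1724 (0.1 mM final) and compound 10 min at room temperature, then stimulated with NKH477 (200nM […]) for 30 min. cAMP read by HTRF (665/620 nm).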

[3] = biological target: D(2) dopamine receptor (Homo sapiens) (UniProt P14416); experiment: Dopamine D2 receptor (DRD2) small molecule antagonists, cell-based qHTS assay (AID 1963595; active = well fitted inhibition curve with a large enough effect in the signal ratio in the repeat runs, with a control signal flat; inconclusive = weak or mixed curves, or effect the other way; the % refers to the signal ratio); settings: HEK293-DRD2 cAMP HTRF antagonist mode; activity change, negative = inhibition: at 92.4 µM (top of the series) unless noted
In short: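 Antagonist mode in DRD2-HEK293 cells: after compound addition with 0.1 mM Ro20-1724, cells received quinpirole (12 nM) and NKH477 (200 nM) for 30 min at room temperature; HTRF cAMP read after 1 h detection.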

[4] = activation: at 92.4 µM (top of the series) unless noted
% is scaled to controls: 0 for no effect and ±100 for the full control effect.

NC(CO)(CO)CO
Potency [1, 4]: inconclusive: 76900 nM [inhibitor, single point] | activation ([1]; at 42.5 µM (top of the series)): inconclusive: 9.2% | activation ([1]; at 92.4 µM (top of the series)): inactive: -15% and inconclusive: 15.3%

Cc1cc(=O)[nH]c(=S)[nH]1
Potency [1, 4]: inconclusive: 548 nM [inhibitor] | activation [1, 4]: inconclusive: 20.8% | activation [2]: inconclusive: 2.65%

CC(=O)c1ccc(O)cc1
activation [1, 4]: inconclusive: -12.2% | activation ([1]; at 92.4 µM (top of the series)): inactive: -23.9% | Potency [2]: inconclusive: 8050 nM [falling, partial curve, poor fit]

CC(C)(N)CO
Potency [1, 4]: inconclusive: 228 nM [inhibitor, single point] | activation [1, 4]: inconclusive: 11.3% | Potency [2]: inactive

CN1C(C(=O)Nc2ccccn2)=C(O)c2ccccc2S1(=O)=O
Potency [1, 4]: inconclusive: 5500 nM [inhibitor] | activation [1, 4]: inconclusive: 19.8% [at 42.5 µM]

NNC(=O)c1ccncc1
Potency [1, 4]: inconclusive: 1090 nM [inhibitor, partial curve, poor fit] | activation [1, 4]: inconclusive: -60.9% [at 42.5 µM]

CN(N=O)C(=O)N[C@@H]1[C@@H](O)[C@H](O)[C@@H](CO)O[C@@H]1O
activation ([1]; at 42.5 µM (top of the series)): inconclusive: 3.44% | activation ([1]; at 92.4 µM (top of the series)): inconclusive: -8.37% and inactive: -0.916%

C=C[C@H]1CN2CC[C@H]1C[C@H]2[C@H](O)c1ccnc2ccc(OC)cc12
activation ([1]; at 42.5 µM (top of the series)): inconclusive: -43.5% | activation ([1]; at 92.4 µM (top of the series)): inconclusive: -33.2% | Potency [3]: inactive

O=C=Nc1ccc(Cc2ccc(N=C=O)cc2)cc1
Potency [1, 4]: inconclusive: 174 nM [inhibitor, single point] | activation [1, 4]: inconclusive: 42.2%

COS(C)(=O)=O
activation [1, 4]: inconclusive: 3.15% | activation ([1]; at 92.4 µM (top of the series)): inactive: 0.6%

CCCC(C)=O
activation [1, 4]: inconclusive: -1.82% | activation ([1]; at 92.4 µM (top of the series)): inactive: 9.05%

C=C1C[C@]23C[C@@]1(O)CC[C@H]2[C@@]12C=C[C@H](O)[C@@](C)(C(=O)O1)[C@H]2[C@@H]3C(=O)O
Potency [1, 4]: inconclusive: 48.6 nM [rising, full curve, poor fit] | activation [1, 4]: inconclusive: 0.451%

CC(=O)Nc1cccc(O)c1
activation [1, 4]: inconclusive: 32.4% | activation ([1]; at 42.5 µM (top of the series)): inactive: 11.5% | Potency [2]: inactive

OCCOCCN1CCN(C2=Nc3ccccc3Sc3ccccc32)CC1
activation [1, 4]: inconclusive: -27.3% [at 42.5 µM] | activation ([1]; at 42.5 µM (top of the series)): inactive: -27.3% | activation [2]: inconclusive: 8.75% [at 42.5 µM]

O=C1C(N(CO)C(=O)NCO)N(CO)C(=O)N1CO (centres undefined)
activation [1, 4]: inconclusive: 14.3% | activation ([1]; at 42.5 µM (top of the series)): inactive: 3.07%

O=C(O)[C@H](O)[C@@H](O)[C@H](O)[C@H](O)CO
Potency [1, 4]: inconclusive: 1370 nM [inhibitor, single point] | activation [1, 4]: inconclusive: -1.85% [at 3.27 µM]

CC(O)CO (centres undefined)
Potency [1, 4]: inconclusive: 15400 nM [inhibitor, single point] | activation [1, 4]: inconclusive: 1.71% [at 8.39 µM] | activation ([1]; at 92.4 µM (top of the series)): inactive: 17.2% | Potency [2]: inactive | activity change, negative = inhibition [3]: inconclusive: -12%

COc1cc(O)c(C(=O)c2ccccc2)cc1S(=O)(=O)O
activation [1, 4]: inconclusive: 30.6% | activation ([1]; at 42.5 µM (top of the series)): inactive: 5.96% | activation ([1]; at 92.4 µM (top of the series)): inactive: 16.5% | activity change, negative = inhibition [3]: inconclusive: 2.57%

CCCC(=O)O
activation [1, 4]: inconclusive: 28.5% | activation ([1]; at 92.4 µM (top of the series)): inactive: 4.58%

CCCCCCOC(=O)CC(CC(=O)OCCCCCC)(OC(=O)CCC)C(=O)OCCCCCC
Potency [1, 4]: inactive | activation [2]: inconclusive: 5.69%

C[C@]12CCC(=O)C=C1CC[C@H]1[C@@H]3CC[C@](O)(C(=O)CO)[C@@]3(C)C[C@H](O)[C@@]12F
activation [1, 4]: inconclusive: -17.3% [at 42.5 µM] | Potency [2]: inconclusive: 66.8 nM [rising, full curve, poor fit]

O=C(COCCOCCOCC(=O)Nc1c(I)cc(I)c(C(=O)O)c1I)Nc1c(I)cc(I)c(C(=O)O)c1I
activation [1, 4]: inconclusive: -12.8% [at 42.5 µM] | activation [2]: inconclusive: 22.2% [at 42.5 µM]

CC(C)CC(C)CC(O)CC(C)C (centres undefined)
Potency [1, 4]: inactive | Potency [2]: active: 1.8 nM

C=CC(C)CCC=C(C)C (centres undefined)
Potency [1, 4]: inactive | Potency [2]: inactive

N[C@H]1C(O)O[C@H](CO)[C@@H](O)[C@@H]1O (some centres undefined)
Potency [1, 4]: inactive | activation [2]: inconclusive: 14.4% [at 42.5 µM]

CC(=O)OC/C=C(C)/C=C/C=C(C)/C=C/C1=C(C)CCCC1(C)C
Potency [1, 4]: inactive | Potency [2]: inconclusive: 1.3 nM [rising, full curve, poor fit]
